Laboratory results as given in the supplement of paper PMC4604168 (melanoma cell lines).
This is one part of the list. Single values are uncertain, as repeats are few or missing.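 Imaging used 1,536-well plates; nuclei positive for cleaved PARP by antibody were divided by total DNA-stained nuclei to yield the apoptosis fraction. Doses for screening kept most cells viable, and cell lines differ markedly in resting and induced cleaved-PARP levels.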

Columns and labels:
Test in all cases: cleaved PARP positive nuclei fraction relative to DMSO control; melanoma cells; higher = more apoptosis
Conditions in all cases: library dose: low library concentration; 72 h
MZ2-MEL = system: MZ2-MEL
MeWo = system: MeWo
RPMI7951 = system: RPMI7951
RVH-421 = system: RVH-421
SkMel28 = system: SkMel28
SkMel2 = system: SkMel2
SkMel30 = system: SkMel30
UACC62 = system: UACC62
SkMel5 = system: SkMel5
UACC257 = system: UACC257

Compound | cleaved PARP positive nuclei fraction (MZ2-MEL) | cleaved PARP positive nuclei fraction (MeWo) | cleaved PARP positive nuclei fraction (RPMI7951) | cleaved PARP positive nuclei fraction (RVH-421) | cleaved PARP positive nuclei fraction (SkMel28) | cleaved PARP positive nuclei fraction (SkMel2) | cleaved PARP positive nuclei fraction (SkMel30) | cleaved PARP positive nuclei fraction (UACC62) | cleaved PARP positive nuclei fraction (SkMel5) | cleaved PARP positive nuclei fraction (UACC257)
CC[C@]1(O)C[C@H]2CN(CCc3c([nH]c4ccccc34)[C@@](C(=O)OC)(c3cc4c(cc3OC)N(C=O)[C@H]3[C@@](O)(C(=O)OC)[C@H](OC(C)=O)[C@]5(CC)C=CCN6CC[C@]43[C@@H]65)C2)C1 [vincristine] + N.N.[Cl][Pt][Cl] [cisplatin] (first compound 0.0001 µM, partner dose 1.6 µM) | 83.8% | 190% | 83.8% | 157% | 62.7% | 52.2% | 61.8% | 53.7% | – | –
OCc1c[nH]c2ccccc12 [Indole-3-carbinol] + C[As](C)SC[C@H](NC(=O)CC[C@H](N)C(=O)O)C(=O)NCC(=O)O [Darinaparsin] (first compound 0.8 µM, partner dose 0.4 µM) | 62.1% | 85.9% | 112% | 195% | 71.8% | 170% | 92% | 398% | – | –
N.N.[Cl][Pt][Cl] [cisplatin] + C=CCNC1=C2C[C@@H](C)C[C@H](OC)[C@H](O)[C@@H](C)/C=C(\C)[C@H](OC(N)=O)[C@@H](OC)/C=C\C=C(/C)C(=O)NC(=CC1=O)C2=O [Tanespimycin] (first compound 1.6 µM, partner dose 0.002 µM) | 130% | 85.6% | 88.2% | 136% | 110% | 78.3% | 26.1% | 65.6% | – | –
N.N.[Cl][Pt][Cl] [cisplatin] + Nc1ncn([C@H]2C[C@H](O)[C@@H](CO)O2)c(=O)n1 [decitabine] (first compound 1.6 µM, partner dose 0.1 µM) | 50.1% | 132% | 52.1% | 66% | 39.9% | 170% | 76.1% | 134% | – | –
N.N.[Cl][Pt][Cl] [cisplatin] + OCc1c[nH]c2ccccc12 [Indole-3-carbinol] (first compound 1.6 µM, partner dose 0.8 µM) | 267% | 114% | 84.1% | 48.4% | 40.8% | 36% | 123% | 33.7% | – | –
C[C@@H](N)c1ccc(C(=O)Nc2ccnc3[nH]ccc23)cc1 + N.N.[Cl][Pt][Cl] [cisplatin] (first compound 0.4 µM, partner dose 1.6 µM) | 238% | 62.8% | 63% | 135% | 183% | 133% | 87.4% | 90.5% | – | –
OCCn1cc(-c2cnc3nnn(Cc4ccc5ncccc5c4)c3n2)cn1 + O=C(Oc1ccc([N+](=O)[O-])cc1)N1CCC(C(O)(c2ccc3c(c2)OCO3)c2ccc3c(c2)OCO3)CC1 [JZL184] (first compound 1 µM, partner dose 1 µM) | 105% | 30.1% | 42.1% | 53.3% | 73.8% | – | 27.8% | 105% | 72.5% | 120%
COC(=O)c1sccc1S(=O)(=O)Nc1ccc(Nc2ccccc2)cc1OC + C/C(O)=C(\C#N)C(=O)Nc1cc(Br)ccc1Br [LFM-A13] (first compound 1 µM, partner dose 2 µM) | 49.4% | 76.3% | 73.6% | 59.4% | 135% | – | 210% | 70.7% | 131% | 103%
CCCCCCCCCCCCCCCCCCOP(=O)([O-])OC1CC[N+](C)(C)CC1 [Perifosine] + N.N.[Cl][Pt][Cl] [cisplatin] (first compound 0.4 µM, partner dose 1.6 µM) | 170% | 17.8% | 50.1% | 50.9% | 38.8% | 84% | 57.8% | 123% | – | –
Clc1ccc(Nc2nnc(Cc3ccncc3)c3ccccc23)cc1 [vatalanib] + C[As](C)SC[C@H](NC(=O)CC[C@H](N)C(=O)O)C(=O)NCC(=O)O [Darinaparsin] (first compound 2 µM, partner dose 0.4 µM) | 111% | 110% | 44.5% | 180% | 91.1% | 96.5% | 21.3% | 186% | – | –
C[As](C)SC[C@H](NC(=O)CC[C@H](N)C(=O)O)C(=O)NCC(=O)O [Darinaparsin] + Cc1nc(Nc2ncc(C(=O)Nc3c(C)cccc3Cl)s2)cc(N2CCN(CCO)CC2)n1 [dasatanib] (first compound 0.4 µM, partner dose 0.004 µM) | 56.7% | 167% | 209% | 95.1% | 115% | 88.5% | 72.1% | 175% | – | –
C[C@]1(c2nc3c(C(N)=O)cccc3[nH]2)CCCN1 [Veliparib] + C/C(O)=C(\C#N)C(=O)Nc1cc(Br)ccc1Br [LFM-A13] (first compound 1.4 µM, partner dose 2 µM) | 55.8% | 23.9% | 49.9% | 105% | 166% | – | 52.6% | 158% | 31.1% | 87.2%
C[C@]1(c2nc3c(C(N)=O)cccc3[nH]2)CCCN1 [Veliparib] + Cc1cc(SCc2sc(-c3ccc(C(F)(F)F)c(F)c3)nc2C)ccc1OCC(=O)O [GW0742] (first compound 1.4 µM, partner dose 2 µM) | 45.4% | 115% | 91.4% | 49% | 91.6% | – | 150% | 91.4% | 80.5% | 113%
C=C(c1ccc(C(=O)O)cc1)c1cc2c(cc1C)C(C)(C)CCC2(C)C [Bexarotene] + C[As](C)SC[C@H](NC(=O)CC[C@H](N)C(=O)O)C(=O)NCC(=O)O [Darinaparsin] (first compound 2 µM, partner dose 0.4 µM) | 190% | 139% | 105% | 182% | 118% | 98.5% | 69.7% | 20.2% | – | –
N.N.[Cl][Pt][Cl] [cisplatin] + Cc1nc(Nc2ncc(C(=O)Nc3c(C)cccc3Cl)s2)cc(N2CCN(CCO)CC2)n1 [dasatanib] (first compound 1.6 µM, partner dose 0.004 µM) | 209% | 64.5% | 86.7% | 95.1% | 383% | 155% | 134% | 95.1% | – | –
N#Cc1c(O)c2c(-c3ccc(-c4ccccc4O)cc3)csc2[nH]c1=O + Cc1cc(SCc2sc(-c3ccc(C(F)(F)F)c(F)c3)nc2C)ccc1OCC(=O)O [GW0742] (first compound 2 µM, partner dose 2 µM) | 132% | 111% | 92.4% | 52.1% | 54% | – | 238% | 101% | 41.5% | 41.7%
COc1cc(Nc2ncc(F)c(Nc3ccc4c(n3)NC(=O)C(C)(C)O4)n2)cc(OC)c1OC [Tamatinib] + Cc1cc(SCc2sc(-c3ccc(C(F)(F)F)c(F)c3)nc2C)ccc1OCC(=O)O [GW0742] (first compound 0.4 µM, partner dose 2 µM) | 91.3% | 41.4% | 120% | 56.4% | 129% | – | 31.6% | 385% | 261% | 274%
O=C(Nc1ccccc1)c1cc([N+](=O)[O-])ccc1Cl + Cc1cc(SCc2sc(-c3ccc(C(F)(F)F)c(F)c3)nc2C)ccc1OCC(=O)O [GW0742] (first compound 2 µM, partner dose 2 µM) | 110% | 29.1% | 78% | 118% | 141% | – | 16.2% | 90.7% | 186% | 56%
C[C@]12O[C@H](C[C@]1(O)CO)n1c3ccccc3c3c4c(c5c6ccccc6n2c5c31)CNC4=O [Lestaurtinib] + C=CCn1c(=O)c2cnc(Nc3ccc(N4CCN(C)CC4)cc3)nc2n1-c1cccc(C(C)(C)O)n1 [MK1775] (first compound 0.004 µM, partner dose 0.02 µM) | 79.2% | 125% | 83.9% | 118% | 141% | – | 96.6% | 141% | 51.6% | 80.7%
COCC[n+]1c2c(n(Cc3cnccn3)c1C)C(=O)c1ccccc1C2=O + C/C(O)=C(\C#N)C(=O)Nc1cc(Br)ccc1Br [LFM-A13] (first compound 0.0004 µM, partner dose 2 µM) | 94.1% | 82.9% | 240% | 28.8% | 219% | – | 54.2% | 796% | 87.2% | 281%
Cn1cc(C2=C(c3cn(C4CCN(Cc5ccccn5)CC4)c4ccccc34)C(=O)NC2=O)c2ccccc21 [Enzastaurin] + Nc1ncn([C@H]2C[C@H](O)[C@@H](CO)O2)c(=O)n1 [decitabine] (first compound 0.8 µM, partner dose 0.1 µM) | 62.9% | 116% | 145% | 179% | 77.7% | 103% | 89% | 141% | – | –
COc1cc2ncnc(Nc3ccc(Oc4ccccc4)cc3)c2cc1OC + O=C(Oc1ccc([N+](=O)[O-])cc1)N1CCC(C(O)(c2ccc3c(c2)OCO3)c2ccc3c(c2)OCO3)CC1 [JZL184] (first compound 2 µM, partner dose 1 µM) | 127% | 91.4% | 40.4% | 37.6% | 142% | – | 148% | 52.7% | 179% | 85.1%
C[C@]12O[C@H](C[C@]1(O)CO)n1c3ccccc3c3c4c(c5c6ccccc6n2c5c31)CNC4=O [Lestaurtinib] + COc1cc(N2CCC(N3CCN(C)CC3)CC2)ccc1Nc1ncc(Cl)c(Nc2ccccc2S(=O)(=O)C(C)C)n1 [NVP-TAE684] (first compound 0.004 µM, partner dose 0.08 µM) | 134% | 115% | 254% | 68.9% | 193% | – | 119% | 120% | 43.2% | 237%

2 entries from above in a different format:
Compound	cleaved PARP positive nuclei fraction (MZ2-MEL)	cleaved PARP positive nuclei fraction (MeWo)	cleaved PARP positive nuclei fraction (RPMI7951)	cleaved PARP positive nuclei fraction (RVH-421)	cleaved PARP positive nuclei fraction (SkMel28)	cleaved PARP positive nuclei fraction (SkMel2)	cleaved PARP positive nuclei fraction (SkMel30)	cleaved PARP positive nuclei fraction (UACC62)	cleaved PARP positive nuclei fraction (SkMel5)	cleaved PARP positive nuclei fraction (UACC257)
C[C@@H](N)c1ccc(C(=O)Nc2ccnc3[nH]ccc23)cc1 + N.N.[Cl][Pt][Cl] [cisplatin] (first compound 0.4 µM, partner dose 1.6 µM)	238%	62.8%	63%	135%	183%	133%	87.4%	90.5%	–	–
OCCn1cc(-c2cnc3nnn(Cc4ccc5ncccc5c4)c3n2)cn1 + O=C(Oc1ccc([N+](=O)[O-])cc1)N1CCC(C(O)(c2ccc3c(c2)OCO3)c2ccc3c(c2)OCO3)CC1 [JZL184] (first compound 1 µM, partner dose 1 µM)	105%	30.1%	42.1%	53.3%	73.8%	–	27.8%	105%	72.5%	120%
